PubChem BioAssay AID743121 – NCATS, 2013
Screen: 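Partners whose loss is lethal together with topoisomerase I blockade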 (primary screen). Cell system: MDA-MB-231 cells, a human breast cancer line. Knock-down reagent: single siRNA against human genes, 20 nM siRNA (0.8 pmol per well). Duration: 120 h (drug added 48 h after transfection, read 72 h later). Challenge: camptothecin 20 nM (about EC30) for 72 h; vehicle 0.1% DMSO in parallel plates. Measured: 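CellTiter-Glo ATP signal, scaled to control siRNA as percent viability; sensitisation given as log2 of untreated divided by camptothecin-treated viability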. Direction: log2 vehicle/camptothecin viability: higher = stronger sensitisation to camptothecin. Active means: 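Each gene scored by redundant siRNA activity (RSA) over its individual siRNA ratios; a gene is called active at p < 0.001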.
This is an unselected part of about 26,000 deposited reagents. 167 of them (0.63%) were called active. 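Calls are per gene from RSA p-values that are not deposited; an individual active-marked siRNA can sensitise only weakly.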 Reagents against one gene are numbered here. Not all columns of the deposit are shown.

Which result is listed for ABCB9 (ATP binding cassette subfamily B member 9) #1?
log2 vehicle/camptothecin viability: 0.568; call: inactive

What is on record for ABCB9 (ATP binding cassette subfamily B member 9) #2?
log2 vehicle/camptothecin viability: -0.0139; call: inactive

With ABCB9 (ATP binding cassette subfamily B member 9) #3, what was measured?
log2 vehicle/camptothecin viability: -0.177; call: inactive

With ABCB9 (ATP binding cassette subfamily B member 9) #4, what was measured?
log2 vehicle/camptothecin viability: -0.256; call: inactive

What did the screen give for CLCN5 (Cl-/H+ antiporter 5) #1?
log2 vehicle/camptothecin viability: -0.742; call: inactive

With CLCN5 (Cl-/H+ antiporter 5) #2, how do the results read?
log2 vehicle/camptothecin viability: -0.304; call: inactive

With CLCN5 (Cl-/H+ antiporter 5) #3, how do the results read?
log2 vehicle/camptothecin viability: -0.202; call: inactive

What is on record for PANK1 (pantothenate kinase 1) #1?
log2 vehicle/camptothecin viability: -0.221; call: inactive

With PANK1 (pantothenate kinase 1) #2, what was measured?
log2 vehicle/camptothecin viability: -0.378; call: inactive

What is on record for PANK1 (pantothenate kinase 1) #3?
log2 vehicle/camptothecin viability: 0.48; call: inactive

With PANK1 (pantothenate kinase 1) #4, what was measured?
log2 vehicle/camptothecin viability: -0.0877; call: inactive

With PRKAB2 (protein kinase AMP-activated non-catalytic subunit beta 2) #1, what does the deposit list?
log2 vehicle/camptothecin viability: -0.0417; call: inactive

For PRKAB2 (protein kinase AMP-activated non-catalytic subunit beta 2) #2, what does the deposit list?
log2 vehicle/camptothecin viability: 0.14; call: inactive

What is on record for PRKAB2 (protein kinase AMP-activated non-catalytic subunit beta 2) #3?
log2 vehicle/camptothecin viability: 0.0271; call: inactive

How did the screen score PRKAB2 (protein kinase AMP-activated non-catalytic subunit beta 2) #4?
log2 vehicle/camptothecin viability: 0.129; call: inactive

How did the screen score USP33 (ubiquitin specific peptidase 33) #1?
log2 vehicle/camptothecin viability: 0.772; call: inactive

For USP33 (ubiquitin specific peptidase 33) #2, how do the results read?
log2 vehicle/camptothecin viability: -0.215; call: inactive

For USP33 (ubiquitin specific peptidase 33) #3, what was measured?
log2 vehicle/camptothecin viability: -0.104; call: inactive

How did the screen score USP33 (ubiquitin specific peptidase 33) #4?
log2 vehicle/camptothecin viability: -0.309; call: inactive

What is on record for TXNDC17 (thioredoxin domain containing 17) #1?
log2 vehicle/camptothecin viability: 0.682; call: inactive

For TXNDC17 (thioredoxin domain containing 17) #2, how do the results read?
log2 vehicle/camptothecin viability: -0.745; call: inactive

For TXNDC17 (thioredoxin domain containing 17) #3, how do the results read?
log2 vehicle/camptothecin viability: -0.35; call: inactive

Which result is listed for TXNDC17 (thioredoxin domain containing 17) #4?
log2 vehicle/camptothecin viability: -0.0646; call: inactive

For MRGPRX4 (MAS related GPR family member X4) #1, what was measured?
log2 vehicle/camptothecin viability: 0.772; call: inactive

What did the screen give for MRGPRX4 (MAS related GPR family member X4) #2?
log2 vehicle/camptothecin viability: -0.116; call: inactive

Which result is listed for MRGPRX4 (MAS related GPR family member X4) #3?
log2 vehicle/camptothecin viability: -0.00768; call: inactive

For MRGPRX4 (MAS related GPR family member X4) #4, how do the results read?
log2 vehicle/camptothecin viability: 0.525; call: inactive

With MED12 (mediator complex subunit 12) #1, what does the deposit list?
log2 vehicle/camptothecin viability: -0.277; call: inactive

How did the screen score MED12 (mediator complex subunit 12) #2?
log2 vehicle/camptothecin viability: -0.155; call: inactive

With MED12 (mediator complex subunit 12) #3, what does the deposit list?
log2 vehicle/camptothecin viability: -0.366; call: inactive

Which result is listed for MED12 (mediator complex subunit 12) #4?
log2 vehicle/camptothecin viability: -0.0469; call: inactive

For LYL1 (LYL1 basic helix-loop-helix family member) #1, what was measured?
log2 vehicle/camptothecin viability: -0.212; call: inactive

How did the screen score LYL1 (LYL1 basic helix-loop-helix family member) #2?
log2 vehicle/camptothecin viability: -0.284; call: inactive

For LYL1 (LYL1 basic helix-loop-helix family member) #3, what was measured?
log2 vehicle/camptothecin viability: -0.0224; call: inactive

For LYL1 (LYL1 basic helix-loop-helix family member) #4, how do the results read?
log2 vehicle/camptothecin viability: -0.196; call: inactive
